Results deposited as PubChem BioAssay AID1159578 (Peter MacCallum Cancer Centre, 2015).
Here is a random part of about 18,000 reagents tested. Of all reagents, about 1,030 (5.7%) were called active. 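Inactive calls also include pools with fewer than 3300 nuclei, whose migration was not assessed.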 Raw values are not corrected between plates. A number with no mark means an inactive call. Not all columns of the deposit are shown.

- Screen: 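siRNA pools altering how lymphatic endothelial cells close a scratch wound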 (primary screen)
- Cells: human lymphatic endothelial cells
- Knock-down reagent: siRNA pool against human genes, 40 nM
- Timing: 48 h after transfection
- Measurement: 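Cells stained with dye and imaged after a scratch; covered wound area and nuclei counted, duplicates averaged, migration set against mock wells and turned into a robust z-score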
- Direction: migration robust z-score: higher = faster migration into the scratch; nuclei per well: higher = more cells in the well
- Active means: 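Pools averaging fewer than 3300 nuclei are never called; remaining pools count as changed when migration robust z lies outside -2 to 2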
- Calls: active = migration changed; inactive = no migration change, or too few cells

{"target":"APEX1","migration robust z-score":-0.72,"migration class with cell-count check":"migration z between -2 and 2; enough cells","nuclei per well, duplicate mean":3605}
{"target":"DNAJA3","migration robust z-score":-1.21,"migration class with cell-count check":"migration z between -2 and 2; enough cells","nuclei per well, duplicate mean":5291}
{"target":"PIGS","migration robust z-score":0.29,"migration class with cell-count check":"migration z between -2 and 2; enough cells","nuclei per well, duplicate mean":7604}
{"target":"PCDHA5","migration robust z-score":1.28,"migration class with cell-count check":"migration z between -2 and 2; enough cells","nuclei per well, duplicate mean":5530}
{"target":"MVD","migration robust z-score":-0.28,"migration class with cell-count check":"migration z between -2 and 2; enough cells","nuclei per well, duplicate mean":4952}
{"target":"CAMK2D","migration robust z-score":-1.53,"migration class with cell-count check":"migration z between -2 and 2; enough cells","nuclei per well, duplicate mean":4810}

The list goes on (2 carried over from the part before).
{"target":"MVD","migration robust z-score":-0.28,"migration class with cell-count check":"migration z between -2 and 2; enough cells","nuclei per well, duplicate mean":4952}
{"target":"CAMK2D","migration robust z-score":-1.53,"migration class with cell-count check":"migration z between -2 and 2; enough cells","nuclei per well, duplicate mean":4810}
{"target":"STOM","migration robust z-score":0.4,"migration class with cell-count check":"migration z between -2 and 2; enough cells","nuclei per well, duplicate mean":5998}
{"target":"LIN28A","migration robust z-score":0.01,"migration class with cell-count check":"migration z between -2 and 2; enough cells","nuclei per well, duplicate mean":6528}
{"target":"LOC284009","migration robust z-score":-0.57,"migration class with cell-count check":"migration z between -2 and 2; enough cells","nuclei per well, duplicate mean":4926}
{"target":"SLC5A9","migration robust z-score":1.02,"migration class with cell-count check":"migration z between -2 and 2; enough cells","nuclei per well, duplicate mean":5860}
{"target":"DHX32","migration robust z-score":0.02,"migration class with cell-count check":"migration z between -2 and 2; enough cells","nuclei per well, duplicate mean":5154}
{"target":"CCBE1","migration robust z-score":-1.01,"migration class with cell-count check":"migration z between -2 and 2; enough cells","nuclei per well, duplicate mean":4890}
{"target":"ATXN3","migration robust z-score":-0.69,"migration class with cell-count check":"migration z between -2 and 2; enough cells","nuclei per well, duplicate mean":7720}
{"target":"PGK1","migration robust z-score":0.13,"migration class with cell-count check":"migration z between -2 and 2; enough cells","nuclei per well, duplicate mean":5070}
